Data published in PubChem BioAssay AID2685 (National Center for Advancing Translational Sciences (NCATS), 2010).
Some of the results follow. These are further read-outs of the screen, such as a control signal, another cell line or another target. No call is given for them. The list favours compounds with an active or inconclusive main result. The note in brackets gives the kind of curve behind each potency; many fits are weak.

Test: qHTS Assay for Lipid Storage Modulators in Drosophila S3 Cells;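 for cell number change: cells counted by Cell Tracker Red CMTPX staining in the red channel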
Details: BODIPY lipid droplet fluorescence, 18-24 h; for cell number change: measured here: cell count max response, cells fed with added oleic acid
Method in brief: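 Drosophila S3 cells got compounds at several concentrations plus oleic acid (400 uM solution). Laser-scanning cytometry with 488 nm excitation read lipid droplets at 500-530 nm and cells at 575-640 nm. Percent activity was relative to 20 uM Triacsin C.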

[1] = measured here: lipid fluorescence (Fed channel) AC50, cells fed with added oleic acid
[2] = measured here: cell number channel AC50, cells fed with added oleic acid

Structure (SMILES)	cell number change [%]	AC50 [1]	AC50 [2]
CC(C)NC(=O)C1CCN(C2CCN(C(=O)/C=C/c3cccs3)CC2)CC1	-43	5.8 µM [falling, full curve]	
O=S(=O)(c1ccccc1S(=O)(=O)N1CCCCC1)N1CCCCC1	37	6.51 µM [falling, partial curve, poor fit]	23.1 µM [rising, single point]
Cc1csc(=O)n1CCC(=O)OCc1nnc(-c2ccc([N+](=O)[O-])cc2)o1	1.56		
Cc1ccc2nc(-c3ccccn3)c(NC3CCCC3)n2c1	-14.2	0.13 µM [falling, full curve, poor fit]	
CCCOc1ccc(C(CC(=O)O)NC(=O)C23CC4CC(CC(C4)C2)C3)cc1 (stereo not given)	-9	0.326 µM [falling, full curve, poor fit]	
Cc1sc(Cc2nc(O)cs2)nc1-c1ccccc1	6.95		6.51 µM [rising, partial curve, poor fit]
CC(=O)Oc1c(Sc2ccccc2[N+](=O)[O-])c(C)nn1C(C)(C)C	-30	0.58 µM [falling, full curve, poor fit]	2.91 µM [falling, full curve, poor fit]
CCOc1ccc(NC(=O)CSc2nc3nc4c(cc3c(=O)n2CC)COC(C)(C)C4)cc1		0.517 µM [rising, full curve]	
Cc1nn(-c2ccccc2)c(C)c1/C=N/NC(=O)CSc1nnc(-c2ccccc2)n1-c1ccc(Cl)cc1	-7.06	0.13 µM [rising, full curve, poor fit]	
Cn1nnc(NC(=S)NC(=O)c2cccc3c(Br)cccc23)n1	3.05	6.51 µM [rising, single point]	
CCn1c(COc2cccc3cccnc23)nnc1SCC(=O)O	12.1	0.82 µM [falling, full curve, poor fit]	
COc1cc(NC(=O)c2ccc3c(=O)n(Cc4ccco4)c(=S)[nH]c3c2)cc(OC)c1OC		6.51 µM [falling, single point]	5.8 µM [falling, single point]
O=C(CCN1C(=O)C2C3C=CC(C3)C2C1=O)NCCc1ccccc1Cl (stereo not given)			2.31 µM [rising, partial curve]
Cc1noc(C)c1CSCC(=O)NCCN1C(=O)S/C(=C\c2ccccc2F)C1=O	7.81	29.1 µM [falling, single point]	
CCOC(=O)c1c(NC(=O)CN2CCOCC2)sc(C(=O)NC)c1C		4.61 µM [falling, single point]	
COc1cc2ncnc(NCc3ccco3)c2cc1OC	-45		23.1 µM [falling, single point]
COc1ccc(C2(C)NC(=O)N(CC(=O)NCc3ccccc3)C2=O)cc1OC (stereo not given)	31.9		0.146 µM [rising, full curve, poor fit]
Cc1ccc(C)c(NC(=O)CSc2nccn2Cc2ccco2)c1	-1.62	6.31 µM [rising, single point]	6.31 µM [rising, single point]
COc1cc(/C=N/NC(=O)c2ccc(CSc3nncn3C)cc2)cc(OC)c1O	-24.1	1.46 µM [falling, partial curve]	
Cc1csc(=O)n1CCC(=O)OCC(=O)NNC(=O)c1ccccc1	-19.3		0.116 µM [falling, full curve, poor fit]
COc1ccc(S(=O)(=O)N2CCCC2CNC(=O)C(=O)NC2CC2)cc1 (stereo not given)	6.37	6.51 µM [rising, single point]	
COc1ccc(-n2ncc3c(NCc4ccco4)ncnc32)cc1	5.71		
Cc1ccccc1Cc1c(C)nc2c(C(=O)NCc3ccco3)cnn2c1C	-31.4	25.9 µM [falling, partial curve]	4.11 µM [falling, partial curve, poor fit]
CC(=O)Nc1ccc(NC(=O)COC(=O)[C@@H](NC(=O)c2ccc(F)cc2)C(C)C)cc1	38.3	29.1 µM [rising, single point]	
COc1ccc(OC)c(NC(=O)CSc2nnc(CNC(=O)c3cc(OC)c(OC)c(OC)c3)o2)c1	32	20.6 µM [rising, partial curve]	14.6 µM [rising, partial curve]
COc1ccc(OC)c(NC(=O)CSc2nnc(CNc3ccc(F)cc3)o2)c1	-12.9	0.0731 µM [rising, full curve, poor fit]	
CNC(=O)c1cccc2cccc(Sc3ccccc3C(=O)O)c12	-43.6	32.6 µM [falling, partial curve, poor fit]	29.1 µM [falling, partial curve, poor fit]
Cc1ccc(C2=N/C(=C\c3ccc(OS(=O)(=O)c4ccc(C)cc4)cc3)C(=O)O2)cc1	-13.3	0.58 µM [rising, partial curve, poor fit]	0.92 µM [rising, full curve, poor fit]

Structure (SMILES)	cell number change [%]	AC50 [1]	AC50 [2]
COc1cccc(C(=O)COc2ccc(NC(=O)c3cccs3)cc2)c1	-35.6	4.11 µM [falling, partial curve]	1.16 µM [falling, full curve]
COc1ccc(C2Nc3ccccc3C(=O)N2NS(C)(=O)=O)cc1 (stereo not given)	-53.3		29.1 µM [falling, single point]
COc1cccc(NC(=O)CSc2nnc(-c3cccnc3)o2)c1	-25	20.6 µM [falling, single point]	4.61 µM [rising, single point]
CN(C)C(=S)NC(C)(C)C	-7.05	2.31 µM [rising, partial curve, poor fit]	
COC(=O)C1=C(C)NC(=O)NC1c1ccsc1 (stereo not given)	92.6	29.1 µM [rising, single point]	29.1 µM [rising, single point]
O=C(CCc1nnc2ccc(NCc3ccc(Cl)cc3)nn12)NC1CCCCC1	-42	14.6 µM [falling, partial curve]	1.3 µM [falling, full curve, poor fit]
COc1cc(Nc2ccccc2Cl)c([N+](=O)[O-])nc1[N+](=O)[O-]		5.8 µM [falling, full curve]	
CC(C)OC(=O)CSc1nnc(Cc2ccccc2)n1Cc1ccco1			0.58 µM [falling, single point]
COC(=O)Cc1cc(=O)[nH]c(/N=C(\N)Nc2ccc(C(C)C)cc2)n1	4.4		
CC(Nc1cccnc1)=C(C#N)C#N	19.1	0.116 µM [rising, single point]	
CCOC(=O)CC1(NC(=O)c2cc(COc3ccc(F)c(F)c3)on2)CCCCC1	-22		
CN1CCN(c2ccccc2NC(=O)c2ccc(-c3cccc(Cl)c3)o2)CC1	-34.8	8.2 µM [falling, partial curve]	6.51 µM [falling, partial curve]
Cc1nn(C)cc1CN(C)S(=O)(=O)c1cccc([N+](=O)[O-])c1	-18.5	3.66 µM [falling, full curve]	0.00517 µM [falling, full curve, poor fit]
Cc1ccc(-c2cc(NC(=O)CCl)n(-c3ccccc3)n2)cc1	-25.8	0.13 µM [rising, full curve, poor fit]	
COc1ccc(OC)c(N(CC(=O)N2CCc3ccccc3C2)S(C)(=O)=O)c1	6.21	5.8 µM [falling, single point]	
COc1ccc(-c2noc(CCC(=O)Nc3cccnc3)n2)cc1OC	3.94		0.0184 µM [falling, full curve, poor fit]
CCNc1nc(OC)nc(SCC(=O)Nc2ccccc2)n1	8.27		0.146 µM [rising, single point]
Cc1nc(SC(C)C)[nH]c(=O)c1Cc1ccccc1	-9.57	0.103 µM [falling, full curve, poor fit]	
Cc1cc(C)n(C(=O)c2ccc(C)c(S(=O)(=O)N3CCCCC3)c2)n1	-0.799	6.51 µM [rising, single point]	
CCOc1ccc(NC(=O)CN(c2ccc(OC)c(OC)c2)S(=O)(=O)c2ccc(C)cc2)cc1	-33	6.51 µM [rising, partial curve]	13 µM [falling, single point]
COc1ccc(-c2nc(CC(=O)O)cs2)cc1OC	41.6		14.6 µM [rising, single point]
CN(C)c1nc(N)c([N+](=O)[O-])c(NCc2ccccc2)n1	43.3	8.2 µM [rising, partial curve]	8.2 µM [rising, partial curve]
COc1ccc(-c2cc3nc(C4CCN(C(=O)OC(C)(C)C)CC4)c(C(=O)O)cn3n2)cc1	-20.3	20.6 µM [falling, single point]	
COc1ccc(Cn2c(=O)[nH]c3cc(C(=O)N4CCN(c5ccccc5OC)CC4)ccc3c2=O)cc1	-5.13		
Cc1cc2c(NCCc3ccccc3)ncnc2s1	-61.9		5.8 µM [falling, full curve, poor fit]
O=C(Nc1ccc(S(=O)(=O)N2CCCc3ccccc32)cc1)C1CCCO1 (stereo not given)		6.51 µM [rising, partial curve, poor fit]	3.66 µM [rising, single point]
CCOC(=O)c1c(NC2OC(=O)c3c2ccc(OC)c3OC)sc(C(=O)OC(C)(C)C)c1C (stereo not given)	-18.1	2.31 µM [rising, single point]	

Look-ups from the list:
Value of COc1ccc(-c2nc(CC(=O)O)cs2)cc1OC under cell number change [%]: 41.6
Value of COc1ccc(C2Nc3ccccc3C(=O)N2NS(C)(=O)=O)cc1 (stereo not given) under AC50 [2]: 29.1 µM [falling, single point]
